PubChem BioAssay AID720505 – Drosophila RNAi Screening Center, 2013

Assay: 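Genes needed for store-operated calcium entry in fly cells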 (primary screen)
System: Drosophila S2R+ cells
Knock-down reagent: long dsRNA against Drosophila genes
Treatment: thapsigargin (2 µM) in calcium-free buffer to empty internal stores, then 2 mM calcium added back
Measurement: 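Fluo-4 signal in 384-well plates read on a FLIPR after thapsigargin (2 µM, calcium-free) store depletion and 2 mM calcium add-back; unnormalised mean endpoint per well; screen run twice, selected wells retested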
Reading the numbers: calcium signal and retest calcium signal: higher = more calcium entry after store depletion
Hit rule: 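About 1500 genes called as lowering calcium entry, by varying amounts, judged against per-plate control wells with STIM1 as positive and Rho1 as negative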
Calls: active = called as lowering calcium entry; inactive = not called
The deposit covers about 20,000 reagents; this is an unselected part of those that have a named target and a result. Over the whole deposit, about 2,100 (10%) got an active call. 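Raw plate signals without normalisation; calls rest on control-based scores that were not deposited; replicate 2 separates called from uncalled poorly.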 Names joined by + are all predicted targets of the reagent. The record does not give: the amount of reagent, the time to read-out.

The opening 7 entries as a preview:
| gene knocked down | dsRNA | calcium signal, replicate 1 | calcium signal, replicate 2 | retest calcium signal, replicate 1 | retest calcium signal, replicate 2 | activity call |
| --- | --- | --- | --- | --- | --- | --- |
| CG10801 (GeneID 31314) | DRSC17761 | 99.7 | 89.6 | – | – | inactive |
| cad (GeneID 35341) | DRSC03502 | 51.3 | 85.5 | – | – | active |
| cad (GeneID 35341) | DRSC23193 | 112 | 150 | – | – | inactive |
| sw (GeneID 44160) | DRSC20388 | 74.2 | 66.9 | – | – | active |
| CG33177 (GeneID 32438) | DRSC19949 | 71.4 | 113 | – | – | active |
| Gr64a (GeneID 117481) | DRSC21713 | 104 | 93.8 | – | – | inactive |
| CG31821 (GeneID 34938) | DRSC22162 | 81.3 | 174 | – | – | inactive |

The list itself, from the start:
| gene knocked down | dsRNA | calcium signal, replicate 1 | calcium signal, replicate 2 | retest calcium signal, replicate 1 | retest calcium signal, replicate 2 | activity call |
| --- | --- | --- | --- | --- | --- | --- |
| CG10801 (GeneID 31314) | DRSC17761 | 99.7 | 89.6 | – | – | inactive |
| cad (GeneID 35341) | DRSC03502 | 51.3 | 85.5 | – | – | active |
| cad (GeneID 35341) | DRSC23193 | 112 | 150 | – | – | inactive |
| sw (GeneID 44160) | DRSC20388 | 74.2 | 66.9 | – | – | active |
| CG33177 (GeneID 32438) | DRSC19949 | 71.4 | 113 | – | – | active |
| Gr64a (GeneID 117481) | DRSC21713 | 104 | 93.8 | – | – | inactive |
| CG31821 (GeneID 34938) | DRSC22162 | 81.3 | 174 | – | – | inactive |
| bon (GeneID 44235) | DRSC16914 | 197 | 150 | – | – | inactive |
| Cdc42 (GeneID 32981) | DRSC20228 | 103 | 108 | – | – | inactive |
| RpS27 (GeneID 43039) | DRSC14244 | 148 | 116 | – | – | active |
| Burs (GeneID 42560) | DRSC14595 | 177 | 168 | – | – | inactive |
| CG34176 (GeneID 5740391) | DRSC00435 | 188 | 73.6 | – | – | inactive |
| Pex5 (GeneID 31141) | DRSC18552 | 132 | 177 | – | – | inactive |
| botv (GeneID 37198) | DRSC05949 | 111 | 120 | – | – | inactive |
| PPO2 (GeneID 35910) | DRSC07102 | 99 | 111 | – | – | inactive |
| CG31220 (GeneID 326126) | DRSC22248 | 83.8 | 176 | – | – | inactive |
| CG1503 (GeneID 33090) | DRSC20512 | 218 | 192 | – | – | inactive |
| pAbp (GeneID 37070) | DRSC07659 | 126 | 91.3 | – | – | inactive |
| CG7322 (GeneID 32880) | DRSC20036 | 62.8 | 116 | – | – | active |
| Hibch (GeneID 41869) | DRSC15705 | 54.8 | 109 | – | – | active |
| ry (GeneID 41605) | DRSC17048 | 123 | 80.5 | – | – | inactive |
| CG34376 (GeneID 42638) | DRSC14695 | 175 | 141 | – | – | inactive |
| CG34376 (GeneID 42638) | DRSC14696 | 131 | 157 | – | – | inactive |
| CG34376 (GeneID 42638) | DRSC14701 | 179 | 164 | – | – | inactive |
| fat-spondin (GeneID 36919) | DRSC07617 | 151 | 78 | – | – | inactive |
| CG33978 (GeneID 3885646) | DRSC17106 | – | – | – | – | inactive |
| NimB2 (GeneID 260645) | DRSC22645 | 115 | 150 | – | – | inactive |
| boly (GeneID 35809) | DRSC21629 | 117 | 129 | – | – | inactive |
| CG8360 (GeneID 34122) | DRSC03085 | 69.7 | 147 | 160 | 80.8 | inactive |
| mahe (GeneID 31707) | DRSC17755 | 197 | 168 | – | – | inactive |
| CG12523 (GeneID 39216) | DRSC09895 | 77.8 | 75.7 | 5479 | 72.4 | inactive |
| Grip71 (GeneID 35130) | DRSC02042 | 48.7 | 84.1 | – | – | active |
| MsrA (GeneID 39675) | DRSC11159 | 96.7 | 165 | – | – | inactive |
| Idua (GeneID 34544) | DRSC02941 | 99.3 | 114 | – | – | inactive |
| betaNACtes5 (GeneID 10178924) | DRSC19100 | 107 | 120 | – | – | inactive |
| FucTC (GeneID 3355171) | DRSC20966 | 105 | 11376 | – | – | inactive |
| CG11406 (GeneID 37877) | DRSC04010 | 64.4 | 87.9 | – | – | active |
| CG11406 (GeneID 37877) | DRSC04108 | 99.8 | 142 | – | – | inactive |
| CG40298 (GeneID 3355149) | DRSC22274 | 110 | 113 | – | – | inactive |
| CG42712 (retired record) (GeneID 10178815) | DRSC01038 | 191 | 131 | – | – | inactive |
| Phax (GeneID 35926) | DRSC07066 | 148 | 189 | – | – | inactive |
| Hcf (GeneID 43788) | DRSC17143 | 116 | 162 | – | – | inactive |
| CG4789 (GeneID 32668) | DRSC19918 | 144 | 150 | – | – | inactive |
| Sce (GeneID 43327) | DRSC16825 | 106 | 101 | – | – | inactive |
| CG18581 (GeneID 39633) | DRSC10324 | 91.2 | 155 | – | – | inactive |
| CG13949 (GeneID 33266) | DRSC00367 | 61.2 | 106 | 117 | 98.7 | active |
| CG4382 (GeneID 34279) | DRSC02743 | 183 | 198 | – | – | inactive |
| RpS7 (GeneID 43594) | DRSC15394 | 62.6 | 61.3 | – | – | active |
| CG31952 (GeneID 326179) | DRSC00428 | 185 | 148 | – | – | inactive |
| CG31952 (GeneID 326179) | DRSC21997 | 104 | 199 | – | – | inactive |
| Pex1 (GeneID 45460) | DRSC11358 | 80.5 | 118 | – | – | inactive |
| Rab7 (GeneID 42841) | DRSC16810 | 141 | 152 | – | – | inactive |
| Lip1 (GeneID 43973) | DRSC03364 | 62.3 | 94.4 | – | – | active |
| CG34309 (GeneID 5740636) | DRSC14838 | 121 | 196 | – | – | inactive |
| CG13443 (GeneID 37351) | DRSC06403 | 61.4 | 109 | – | – | inactive |
| stck (GeneID 40999) | DRSC17070 | 167 | 138 | – | – | inactive |
| CG8483 (GeneID 41623) | DRSC16430 | 135 | 157 | – | – | inactive |
| Sox15 (GeneID 36575) | DRSC07555 | 123 | 148 | – | – | inactive |
| klar (GeneID 38067) | DRSC08718 | 46.1 | 148 | – | – | active |
| klar (GeneID 38067) | DRSC22393 | 85.9 | 73.1 | – | – | inactive |
| Psf2 (GeneID 33641) | DRSC00516 | 112 | 84.8 | – | – | inactive |
| betaNACtes2 (GeneID 32386) | DRSC19792 | 115 | 122 | – | – | inactive |
| CG3556 (GeneID 31380) | DRSC18309 | 123 | 152 | – | – | inactive |
| CG11353 (GeneID 38560) | DRSC08182 | 76 | 138 | – | – | inactive |
| CG1092 (GeneID 40538) | DRSC12151 | 137 | 124 | – | – | inactive |
| Coq7 + shf | DRSC18448 | 171 | 130 | – | – | inactive |
| Galphaf (GeneID 39861) | DRSC11171 | 87.5 | 161 | – | – | inactive |
| Kcmf1 (GeneID 41082) | DRSC14459 | 99.4 | 133 | – | – | inactive |
| CG30286 (GeneID 246529) | DRSC04070 | 150 | 96.1 | – | – | inactive |
| CG7142 (GeneID 42194) | DRSC16204 | 148 | 131 | – | – | inactive |
| CG33178 (GeneID 318913) | DRSC19950 | 94.5 | 158 | – | – | inactive |
| p115 (GeneID 31698) | DRSC18813 | 140 | 129 | – | – | inactive |
| CG31259 (GeneID 41010) | DRSC14366 | 127 | 152 | – | – | inactive |
| CG34194 (GeneID 5740534) | DRSC05666 | 127 | 89.1 | – | – | inactive |
| CG4598 (GeneID 34315) | DRSC02763 | 167 | 179 | – | – | inactive |
| CG15142 (GeneID 35059) | DRSC02443 | 80.4 | 127 | – | – | active |
| lectin-33A (GeneID 53516) | DRSC02529 | 170 | 127 | – | – | inactive |
| lectin-33A (GeneID 53516) | DRSC22116 | 129 | 128 | – | – | inactive |
| CG17047 (GeneID 36478) | DRSC06648 | 102 | 150 | – | – | inactive |
| CG13690 (GeneID 33213) | DRSC00359 | 219 | 136 | – | – | inactive |
| CG8435 (GeneID 36789) | DRSC07179 | 141 | 108 | – | – | inactive |
| CG12688 (retired record) (GeneID 31378) | DRSC17877 | 223 | 128 | 7346 | 134 | inactive |
| CG12688 (retired record) (GeneID 31378) | DRSC17878 | 251 | 162 | 6985 | 145 | inactive |
| CG6293 (GeneID 41259) | DRSC16011 | 122 | 100 | – | – | inactive |
| CG15533 (GeneID 43612) | DRSC15069 | 147 | 135 | – | – | inactive |
| CG11630 (GeneID 35429) | DRSC03696 | 104 | 111 | – | – | inactive |
| CG3982 (GeneID 39084) | DRSC10394 | 48.3 | 60.8 | – | – | inactive |
| CG3982 (GeneID 39084) | DRSC23139 | 133 | 157 | – | – | inactive |
| CG11068 (GeneID 32357) | DRSC19369 | 64 | 148 | – | – | active |
| Alg-2 (GeneID 3355106) | DRSC07799 | 56.7 | 144 | – | – | inactive |
| CG9213 (GeneID 32490) | DRSC20170 | 121 | 138 | – | – | inactive |
| FoxP (GeneID 41182) | DRSC15159 | 145 | 126 | – | – | inactive |
| FoxP (GeneID 41182) | DRSC21961 | 67.8 | 204 | – | – | inactive |
| CG10026 (GeneID 35226) | DRSC02010 | 162 | 77.3 | – | – | inactive |
| CG5098 (GeneID 37063) | DRSC06915 | 74.5 | 144 | – | – | active |
| Idgf4 (GeneID 31926) | DRSC18675 | 151 | 131 | – | – | inactive |
| CG11629 (GeneID 35431) | DRSC03695 | 89.7 | 100 | – | – | inactive |
| Cpr65Az (GeneID 38712) | DRSC09882 | 119 | 104 | – | – | inactive |
| Cpr65Az (GeneID 38712) | DRSC22057 | 94.8 | 190 | – | – | inactive |
| Srlp (GeneID 41533) | DRSC15890 | 80.6 | 104 | – | – | active |
| Spn28Da (GeneID 34082) | DRSC02162 | 95.9 | 149 | – | – | inactive |
| CG10000 (GeneID 43394) | DRSC14170 | 194 | 197 | – | – | inactive |
| CG11663 (GeneID 31036) | DRSC17793 | 120 | 181 | – | – | inactive |
| CG11663 (GeneID 31036) | DRSC23063 | 102 | 160 | – | – | inactive |
| CG30419 (GeneID 37879) | DRSC04208 | 136 | 144 | 103 | 125 | inactive |
| CG30419 (GeneID 37879) | DRSC04209 | 106 | 219 | 146 | 106 | inactive |
| CG30419 (GeneID 37879) | DRSC22519 | 109 | 133 | – | – | inactive |
